Data: PMC11850723

The chains behind the UniProt entries cited, without tags or fusion partners. Where a name states a change or a piece, a line headed by the entry shows the natural chain unless it says otherwise.
UniProt P32897: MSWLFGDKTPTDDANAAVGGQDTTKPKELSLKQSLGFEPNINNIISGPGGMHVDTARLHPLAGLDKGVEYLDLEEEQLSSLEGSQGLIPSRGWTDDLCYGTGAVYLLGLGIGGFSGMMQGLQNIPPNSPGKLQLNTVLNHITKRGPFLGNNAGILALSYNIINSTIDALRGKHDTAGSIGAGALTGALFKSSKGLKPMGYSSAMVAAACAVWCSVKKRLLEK

How the values were obtained:
[1] = target: T1, Dbi1 (disulfide bond formation in inner membrane proteins), protein encoded by ORF YDL157c (S. cerevisiae (endogenous in YPH499 mitochondria)) (UniProt Q12082); assay: cross-linking; DSG in intact energized mitochondria (SI buffer, 30 min on ice); SDS-PAGE and western blotting with Tim23N antibodies
T1 sequence: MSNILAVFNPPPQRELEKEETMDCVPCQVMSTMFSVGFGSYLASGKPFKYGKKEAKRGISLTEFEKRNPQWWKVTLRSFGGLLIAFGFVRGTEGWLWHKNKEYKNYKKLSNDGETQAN

[2] = target: T2, Dbi1 genomically tagged with a C-terminal His-tag (S. cerevisiae) (UniProt Q12082); assay: cross-linking; DSG in intact energized mitochondria (SI buffer, 30 min on ice); then solubilized in 1% SDS, diluted, bound to NiNTA-agarose by the His-tag of Dbi1; western blotting with Tim23N antibodies
T2 sequence: T1 sequence

Substance: Tim23-87A5 (Tim23 of the tim23-87A5 mutant) (from UniProt P32897)
- binding [1]: binds
- binding [2]: binds

Results are given in words; binding and its absence hold for the method and conditions named. Binding seen in cells or lysates may run through a third protein. Binding can be weak; no strength is given. For some assays here: Where a sequence is shown, tags or fusion partners need not be part of it.
